According to paper PMC6566402:
No constants are given. Whether binding was seen depends on the method and setting. Binding seen in cells or lysates may run through a third protein. Some results given as binding are weak or reduced against the parent protein; the word gives no strength.

The chains behind the UniProt entries cited, without tags or fusion partners. Where a name states a change or a piece, a line headed by the entry shows the natural chain unless it says otherwise.
UniProt P61169: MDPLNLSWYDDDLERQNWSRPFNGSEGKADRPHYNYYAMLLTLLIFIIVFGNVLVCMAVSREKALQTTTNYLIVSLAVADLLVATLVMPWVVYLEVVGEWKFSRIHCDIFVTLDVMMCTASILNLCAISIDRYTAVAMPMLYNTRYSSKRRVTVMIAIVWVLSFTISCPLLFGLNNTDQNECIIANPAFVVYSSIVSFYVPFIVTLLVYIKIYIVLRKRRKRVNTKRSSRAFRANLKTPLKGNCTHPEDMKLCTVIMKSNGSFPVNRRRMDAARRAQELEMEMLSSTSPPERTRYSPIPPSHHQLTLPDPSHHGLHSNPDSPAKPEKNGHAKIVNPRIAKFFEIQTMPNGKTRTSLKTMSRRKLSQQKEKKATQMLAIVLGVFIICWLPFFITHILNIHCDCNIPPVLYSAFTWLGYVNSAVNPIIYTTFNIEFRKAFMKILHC
UniProt P30543: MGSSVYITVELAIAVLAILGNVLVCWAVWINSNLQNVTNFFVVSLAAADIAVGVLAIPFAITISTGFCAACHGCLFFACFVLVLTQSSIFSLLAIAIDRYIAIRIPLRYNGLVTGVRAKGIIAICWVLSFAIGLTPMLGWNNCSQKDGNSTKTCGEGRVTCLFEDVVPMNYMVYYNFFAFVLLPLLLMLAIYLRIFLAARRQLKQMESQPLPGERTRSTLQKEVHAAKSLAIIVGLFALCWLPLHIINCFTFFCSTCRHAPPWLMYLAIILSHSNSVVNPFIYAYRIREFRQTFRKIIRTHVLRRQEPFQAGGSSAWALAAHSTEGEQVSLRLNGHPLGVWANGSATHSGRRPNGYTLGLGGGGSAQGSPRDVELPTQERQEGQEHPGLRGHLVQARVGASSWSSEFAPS

What was measured:
[1] = target: dopamine D2 receptor (rat (endogenous in striatal astrocyte processes and striatal slices)) (UniProt P61169); assay: proximity ligation; in situ PLA (Duolink) on 10 µm rat striatal slices with anti-A2A and anti-D2 primary antibodies; GFAP co-staining to identify astrocytes; confocal microscopy
[2] = target: dopamine D2 receptor (rat (endogenous in striatal astrocyte processes and striatal slices)) (UniProt P61169); assay: co-IP; 300 ug Triton X-100-soluble membrane proteins of rat striatal gliosomes; 1 ug anti-A2A or anti-D2 antibody overnight at 4 °C, protein G-sepharose; 50 mM sodium borate, 0.1 mM EDTA, pH 7.5, 0.2% Triton X-100; immunoblot of IP and Output
[3] = target: adenosine A2A receptor (rat (endogenous in striatal astrocyte processes and striatal slices)) (UniProt P30543); assay: as above

binding [1] | binding [2] | binding [3] | Substance
binds | binds | – | adenosine A2A receptor (from UniProt P30543 1-410)
– | – | binds | dopamine D2 receptor (from UniProt P61169 1-444)
